# Data from the supplement of paper PMC9135407.
# “And” between values parts separate entries of the source, which are not always exact repeats. Identical values can stand only once. Counter-ions that a name gives are not always drawn. ± gives the standard deviation of the averaged measurements. Some of the results follow. Part of the spread comes from offsets between plates or batches.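 Primary human stellate myofibroblasts activated in culture; inactivation shown by regained lipid droplets. Readout: fraction of Hoechst-counted cells exceeding a per-plate Bodipy threshold, duplicate wells, each plate with DMSO negative and nortriptyline positive controls. Hits: control-normalized score beyond the plate's top-tenth-percentile nortriptyline wells, or among its three best wells. Final well concentrations unstated.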
# Test system: primary human hepatic stellate cells (donor 1)
# Assay: percent Bodipy-positive cells; higher = more lipid droplet accumulation
# Settings: 48 h
# [1] = library stock concentration: 3.33 mM
# [2] = library stock concentration: 10 mM
# [3] = library stock concentration: 1 mM
smiles,measurement,setting,value
C=C1CC[C@H](O)C/C1=C/C=C1\CCC[C@]2(C)[C@@H]([C@H](C)/C=C/[C@H](C)C(C)C)CC[C@@H]12 [Vitamin D2],percent Bodipy-positive cells,[1],5.47 ± 1.1%
same,percent Bodipy-positive cells,[2],89.7 ± 1.4%
C=C1CC[C@H](O)C/C1=C/C=C1\CCC[C@]2(C)[C@@H]([C@H](C)/C=C/[C@H](C)C(C)C)CC[C@@H]12 [Ergocalciferol],percent Bodipy-positive cells,library stock concentration: 5 mM,3.68 ± 0.43%
same,percent Bodipy-positive cells,[2],7.65 ± 0.096%
Cc1ccc(C(=O)Cn2c3c(sc2=N)CCCC3)cc1 [Pifithrin-.alpha.],percent Bodipy-positive cells,[3],10.6 ± 1.8%
CCCCCC=CCC=CCCCCCCCC(=O)OC(COC(=O)CCCCCCCCCCCCCCC)COP(=O)(O)OCCN (stereo not drawn) [1-Palmitoyl-2-linoleoyl PE],percent Bodipy-positive cells,[3],8.73 ± 0.15%
CC(C)(C)NC(=O)[C@H]1CC[C@H]2[C@@H]3CC[C@H]4NC(=O)C=C[C@]4(C)[C@H]3CC[C@]12C,percent Bodipy-positive cells,[2],13.5 ± 1.2%
CC(C)(C)NC(=O)[C@H]1CC[C@H]2[C@@H]3CC[C@H]4NC(=O)C=C[C@]4(C)[C@H]3CC[C@]12C [Finasteride],percent Bodipy-positive cells,,10.2 ± 1.8%
same,percent Bodipy-positive cells,[1],22.6 ± 7.2%
same,percent Bodipy-positive cells,library stock concentration: 5.4 mM,6.75% and 3.46%
same,percent Bodipy-positive cells,[2],10.4 ± 0.87%
C=CC[N+]1([C@H]2C[C@H]3[C@@H]4CC[C@H]5C[C@H](O)[C@@H](N6CCOCC6)C[C@]5(C)[C@H]4CC[C@]3(C)[C@H]2OC(C)=O)CCCC1 [Rocuronium Bromide],percent Bodipy-positive cells,[1],9.91 ± 0.13%
same,percent Bodipy-positive cells,[2],17.1 ± 5.3%
Cc1ccc(C(=O)N(CCCN)[C@@H](c2oc3cc(Cl)ccc3c(=O)c2Cc2ccccc2)C(C)C)cc1,percent Bodipy-positive cells,[1],57.9 ± 6.5%
same,percent Bodipy-positive cells,[2],100%
C[N+](C)(C)C[C@H](O)CC(=O)[O-] [Levocarnitine],percent Bodipy-positive cells,library stock concentration: 12.4 mM,13.2 ± 8.5%
Cn1cnc(=N)c2[nH]cnc21 [3-Methyladenine],percent Bodipy-positive cells,[1],11.1 ± 2.7%
same,percent Bodipy-positive cells,[2],12.3 ± 2.7%
"CCCCCC#CCC#CCC#CCCCCCCC(=O)O [8,11,14-Eicosatriynoic Acid]",percent Bodipy-positive cells,[3],10.4 ± 2.7%
O=c1c2ccccc2nc2n1CCc1c-2[nH]c2ccccc12 [Rutaecarpine],percent Bodipy-positive cells,[2],91.1 ± 2.2%
C[C@H]1[C@H]2CC[C@H]3[C@@H]4CC=C5C[C@@H](N(C)C)CC[C@]5(C)[C@H]4CC[C@]23CN1C [Conessine],percent Bodipy-positive cells,,54.4 ± 12%
"Nc1ncnc2c1ncn2[C@@H]1O[C@@H]2COP(=O)(O)O[C@H]2[C@H]1O [Adenosine 3',5'-cyclic monophosphate]",percent Bodipy-positive cells,[2],56.8 ± 1%
C[N+](C)(C)CC(O)CC(=O)[O-] (racemic) [DL-Carnitine HCl],percent Bodipy-positive cells,[1],7.44 ± 3.5%
same,percent Bodipy-positive cells,[2],12.5 ± 8.6%
CC(C)C(=O)c1c(C(C)C)nn2ccccc12 [Ibudilast],percent Bodipy-positive cells,library stock concentration: 8.7 mM,9.19 ± 2.3%
COP(=O)(OC)OC(c1ccc(Cl)cc1)P(=O)(OC)OC (stereo not drawn),percent Bodipy-positive cells,[2],6.75 ± 1.4%
CC(CN(C)C)CN1c2ccccc2CCc2ccccc21 (stereo not drawn) [Trimipramine maleate salt],percent Bodipy-positive cells,,35.8 ± 1.1%
CC(CN(C)C)CN1c2ccccc2CCc2ccccc21 (stereo not drawn) [Trimipramine maleate],percent Bodipy-positive cells,library stock concentration: 4.9 mM,78.6 ± 2.1%
same,percent Bodipy-positive cells,[2],79.3 ± 4.3%
Cn1c(N2CCCCS2(=O)=O)nc(C(=O)NCc2ccc(F)cc2)c(O)c1=O,percent Bodipy-positive cells,[1],5.62 ± 2.6%
same,percent Bodipy-positive cells,[2],12.2 ± 1.7%
O=C(O)CCC/C=C\C[C@@H]1[C@@H](/C=C/[C@@H](O)Cc2ccccc2)[C@H](O)C[C@@H]1O [16-phenyl tetranor Prostaglandin F2.alpha.],percent Bodipy-positive cells,[3],19 ± 3.8%
O=C(c1ccccc1)c1ccc2nc(NC(=O)c3csc(C4CCN(c5ncnc6ccsc56)CC4)n3)[nH]c2c1,percent Bodipy-positive cells,[1],39.3 ± 9.5%
same,percent Bodipy-positive cells,[2],32.8 ± 11%
"CCCCCC(O)C=CC1C2CC(CO2)C1CCCCCCC(=O)O (stereo not drawn) [9,11-methane-epoxy Prostaglandin F1.alpha.]",percent Bodipy-positive cells,[3],5.29 ± 0.7%
COC(=O)[C@H]1[C@H]2C[C@H]3c4[nH]c5ccccc5c4CCN3C[C@H]2CC[C@@H]1O [Rauwolscine hydrochloride],percent Bodipy-positive cells,,52.2 ± 40%
same,percent Bodipy-positive cells,[2],17.7% and 10.5%
COC(=O)C(C)(N)Cc1ccc(O)cc1 (racemic) [alpha-Methyl-DL-tyrosine methyl ester hydrochloride],percent Bodipy-positive cells,[2],42.5 ± 5.1%
CC(C)NCC(O)COc1cccc2[nH]ccc12 (stereo not drawn),percent Bodipy-positive cells,[2],36.3 ± 6%
CC(C)NCC(O)COc1cccc2[nH]ccc12 (stereo not drawn) [Pindolol],percent Bodipy-positive cells,,27.3 ± 0.67%
same,percent Bodipy-positive cells,library stock concentration: 8.1 mM,7.99% and 10.4%
OC(CCN1CCCC1)(c1ccccc1)C1CCCCC1 (stereo not drawn) [Procyclidine hydrochloride],percent Bodipy-positive cells,,38 ± 8.3%
same,percent Bodipy-positive cells,library stock concentration: 6.2 mM,62.3 ± 2.3%
same,percent Bodipy-positive cells,[2],62.8 ± 1%
c1ccc(\C(\c2c3cccc2)=C\CCNC)c(C=C3)c1 [Norcyclobenzaprine],percent Bodipy-positive cells,,90.5 ± 5.2%
CN(Cc1cc(Br)cc(Br)c1N)C1CCCCC1 [Bromhexine hydrochloride],percent Bodipy-positive cells,library stock concentration: 4.8 mM,45 ± 2.9%
same,percent Bodipy-positive cells,[2],38.4 ± 14%
CN(Cc1cc(Br)cc(Br)c1N)C1CCCCC1 [Bromhexine HCl],percent Bodipy-positive cells,[1],28 ± 26%
same,percent Bodipy-positive cells,library stock concentration: 5.3 mM,11.2 ± 0.69%
same,percent Bodipy-positive cells,[2],52.7 ± 11%
C[C@H](CS)C(=O)N1CCC[C@H]1C(=O)O,percent Bodipy-positive cells,[2],18.6 ± 2.6%
C[C@H](CS)C(=O)N1CCC[C@H]1C(=O)O [Captopril],percent Bodipy-positive cells,,22.7 ± 0.37%
same,percent Bodipy-positive cells,[1],10.8 ± 2.3%
same,percent Bodipy-positive cells,library stock concentration: 9.2 mM,12.4% and 12.7%
Br.Br.CN(C)CCCc1cc(C(=O)Nc2ccc(-c3ccncc3)cc2)ccc1O,percent Bodipy-positive cells,[2],97.66 ± 0.37%
CC1(C)O[C@@H]2C[C@H]3[C@@H]4C[C@H](F)C5=CC(=O)C=C[C@]5(C)[C@H]4[C@@H](O)C[C@]3(C)[C@]2(C(=O)CO)O1 [Flunisolide],percent Bodipy-positive cells,,3.47 ± 1%
same,percent Bodipy-positive cells,[2],12 ± 2.1%
CC1(C)O[C@@H]2C[C@H]3[C@@H]4C[C@H](F)C5=CC(=O)C=C[C@]5(C)[C@H]4[C@@H](O)C[C@]3(C)[C@]2(C(=O)CO)O1 [FluniSOLIDe],percent Bodipy-positive cells,[2],79.2 ± 1.6%
